From the supplement of paper PMC7661543
± gives the standard deviation of the averaged measurements. The effect of the compound repeats well; differences between the knockouts mostly do not.

System: ZR-75-1
Test: relative cell number vs DMSO control (72 h) (% of DMSO); higher = less growth inhibition (more cells)
Description: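 QMAP-Seq: a pool of 5 breast cancer cell lines (ZR-75-1, SKBR3, HCC-38, MDA-MB-231, BT-20), each carrying 12 doxycycline-inducible Cas9 sgRNA perturbations (11 knockouts plus non-targeting sgNT), was treated with compounds for 72 h at four 10-fold doses (10 nM-10 uM or 1 nM-1 uM range). Barcodes were amplified and sequenced, and cell number was interpolated from 293T spike-in standard curves. The result is expressed as % of the median of DMSO wells. Two biological replicates.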

[1] = sgRNA knockout: sgATF3, 1000 nM
[2] = sgRNA knockout: sgATF3, 10000 nM
[3] = sgRNA knockout: sgATF4, 1000 nM
[4] = sgRNA knockout: sgATF4, 10000 nM
[5] = sgRNA knockout: sgATF6, 1000 nM
[6] = sgRNA knockout: sgATF6, 10000 nM
[7] = sgRNA knockout: sgATG7, 1000 nM
[8] = sgRNA knockout: sgATG7, 10000 nM
[9] = sgRNA knockout: sgERN1, 1000 nM
[10] = sgRNA knockout: sgERN1, 10000 nM
[11] = sgRNA knockout: sgHSF2, 1000 nM
[12] = sgRNA knockout: sgHSF2, 10000 nM
[13] = sgRNA knockout: sgNFE2L2, 10 nM
[14] = sgRNA knockout: sgNFE2L2, 100 nM
[15] = sgRNA knockout: sgNFE2L2, 1000 nM
[16] = sgRNA knockout: sgNFE2L2, 10000 nM
[17] = sgRNA knockout: sgSLC35F2, 10 nM
[18] = sgRNA knockout: sgSLC35F2, 100 nM
[19] = sgRNA knockout: sgSLC35F2, 1000 nM
[20] = sgRNA knockout: sgSLC35F2, 10000 nM
[21] = sgRNA knockout: sgXBP1, 1000 nM
[22] = sgRNA knockout: sgXBP1, 10000 nM

Row | SMILES | relative cell number (sgRNA knockout: sgATF3, 10 nM) | relative cell number (sgRNA knockout: sgATF3, 100 nM) | relative cell number [1] | relative cell number [2] | relative cell number (sgRNA knockout: sgATF4, 10 nM) | relative cell number (sgRNA knockout: sgATF4, 100 nM) | relative cell number [3] | relative cell number [4] | relative cell number (sgRNA knockout: sgATF6, 10 nM) | relative cell number (sgRNA knockout: sgATF6, 100 nM) | relative cell number [5] | relative cell number [6] | relative cell number (sgRNA knockout: sgATG7, 10 nM) | relative cell number (sgRNA knockout: sgATG7, 100 nM) | relative cell number [7] | relative cell number [8] | relative cell number (sgRNA knockout: sgERN1, 10 nM) | relative cell number (sgRNA knockout: sgERN1, 100 nM) | relative cell number [9] | relative cell number [10] | relative cell number (sgRNA knockout: sgHSF2, 10 nM) | relative cell number (sgRNA knockout: sgHSF2, 100 nM) | relative cell number [11] | relative cell number [12] | relative cell number [13] | relative cell number [14] | relative cell number [15] | relative cell number [16] | relative cell number [17] | relative cell number [18] | relative cell number [19] | relative cell number [20] | relative cell number (sgRNA knockout: sgXBP1, 10 nM) | relative cell number (sgRNA knockout: sgXBP1, 100 nM) | relative cell number [21] | relative cell number [22]
1 | CN(C)c1cc(NC(=O)CNC(C)(C)C)c(O)c2c1C[C@H]1C[C@H]3[C@H](N(C)C)C(O)=C(C(N)=O)C(=O)[C@@]3(O)C(O)=C1C2=O [Tigecycline] | 105 ± 39 | 110 ± 35 | 122 ± 33 | 113 ± 21 | 127 ± 5.2 | 81.1 ± 28 | 109 ± 27 | 99.7 ± 73 | 93.9 ± 9.7 | 69.3 ± 22 | 130 ± 30 | 89.3 ± 21 | 126 ± 24 | 125 ± 7.2 | 92.3 ± 13 | 84.9 ± 14 | 107 ± 4.2 | 106 ± 31 | 109.2 ± 0.28 | 99.8 ± 1.9 | 103 ± 29 | 119 ± 18 | 95.1 ± 17 | 115 ± 24 | 98.7 ± 5 | 91.3 ± 29 | 87 ± 1.7 | 80.6 ± 7.2 | 98.8 ± 65 | 70.3 ± 45 | 140 ± 21 | 119 ± 28 | 103 ± 20 | 104 ± 40 | 100 ± 7.3 | 80.4 ± 16
2 | CC[C@@]1(O)C(=O)OCc2c1cc1n(c2=O)Cc2cc3c(CN(C)C)c(O)ccc3nc2-1 [Topotecan] | 66.4 ± 11 | 35 ± 4.7 | 25.7 ± 5.3 | 12.6 ± 1.9 | 85.6 ± 34 | 47 ± 4.2 | 17.3 ± 3.1 | 10.8 ± 0.52 | 64.7 ± 5.5 | 34 ± 1.6 | 29.4 ± 19 | 11.6 ± 6.1 | 78.53 ± 0.49 | 32 ± 18 | 20.5 ± 2.7 | 8.59 ± 6.7 | 60.2 ± 18 | 48.9 ± 2.3 | 29.4 ± 3.1 | 9.9 ± 1.7 | 69.6 ± 6.3 | 37.6 ± 0.81 | 27.8 ± 9.3 | 7.1 ± 0.5 | 72.18 ± 0.2 | 49.1 ± 12 | 22.5 ± 0.36 | 5.67 ± 2.8 | 56.6 ± 47 | 58.3 ± 4.8 | 26.5 ± 8.6 | 4.41 ± 2.6 | 62 ± 8.1 | 44.1 ± 5.9 | 24.2 ± 9.7 | 8.66 ± 1.2
3 | CN1CCN(CCCN2c3ccccc3Sc3ccc(C(F)(F)F)cc32)CC1 [Trifluoperazine] | 70.9 ± 34 | 112 ± 27 | 86.5 ± 40 | 51.9 ± 4.6 | 91.3 ± 21 | 87.5 ± 21 | 73.1 ± 1.8 | 59.8 ± 16 | 89.4 ± 28 | 118 ± 31 | 65.3 ± 6.5 | 56.8 ± 33 | 81.1 ± 14 | 67.9 ± 4.5 | 75.5 ± 3.1 | 50.7 ± 12 | 75.3 ± 12 | 95.9 ± 5.5 | 121 ± 12 | 52 ± 2.5 | 76.7 ± 27 | 115 ± 28 | 73.3 ± 2 | 58.8 ± 7.1 | 80.9 ± 30 | 80.6 ± 9.1 | 76.5 ± 4.1 | 79.9 ± 8.9 | 72.6 ± 23 | 93.1 ± 12 | 29.2 ± 15 | 28.1 ± 8.8 | 82.53 ± 0.7 | 96.27 ± 0.8 | 73.7 ± 6 | 68.2 ± 4.1
4 | CN1CCc2c(c3ccccc3n2Cc2ccc(C(=O)NO)cc2)C1 [TubastatinA] | 109 ± 16 | 83.9 ± 3.3 | 116 ± 69 | 79.2 ± 3.9 | 71.8 ± 20 | 60.1 ± 26 | 93.2 ± 32 | 67.5 ± 4.6 | 66.4 ± 22 | 73.9 ± 8 | 57.1 ± 7.5 | 73.8 ± 12 | 82.1 ± 16 | 97.1 ± 30 | 104 ± 42 | 47.9 ± 9.5 | 77.5 ± 0.99 | 79 ± 8 | 86.7 ± 3.3 | 72.9 ± 2.9 | 116 ± 1.7 | 108 ± 17 | 103 ± 52 | 65.27 ± 0.53 | 109 ± 28 | 101 ± 20 | 91.4 ± 4.2 | 63.3 ± 11 | 77.8 ± 22 | 73.4 ± 12 | 76.4 ± 29 | 42.2 ± 12 | 92 ± 9.4 | 91.44 ± 0.11 | 103 ± 9.7 | 63.4 ± 3.5
5 | CCC[C@H](NC(=O)/C(C#N)=C/c1cccc(Br)n1)c1ccccc1 [WP1130] | 107 ± 18 | 106.1 ± 0.25 | 85.5 ± 14 | 6.45 ± 1.6 | 84.4 ± 2.5 | 117 ± 8.8 | 131 ± 12 | 8.63 ± 1.7 | 105 ± 21 | 56.9 ± 14 | 118 ± 22 | 6.51 ± 2.1 | 114 ± 30 | 91 ± 27 | 75.5 ± 15 | 4.4 ± 0.27 | 86.5 ± 2.8 | 105.7 ± 0.49 | 105 ± 19 | 11.6 ± 7.5 | 112 ± 2.2 | 119 ± 6.2 | 75.8 ± 8.2 | 8.08 ± 3.8 | 99.33 ± 0.27 | 118 ± 18 | 95.1 ± 15 | 9.78 ± 5.9 | 64 ± 9 | 69.4 ± 46 | 63.5 ± 13 | 6.99 ± 3.2 | 99.4 ± 13 | 102 ± 29 | 89.7 ± 5.8 | 8.27 ± 2.5
